Laboratory results taken from US9932317B2, “Quinazoline compounds and their use in therapy” (Imperial Innovations Limited, priority 2012, dated 2018).
Some entries share one result that the patent states for a list of compounds.

System: EZH2 target genes (KRT17, FBXO32) in MDA-MB-231 cells
Experiment: Real-time RT-PCR cell based assay for up-regulation of H3K27me3 silenced genes
Details: MDA-MB-231, at higher doses, 48 h and 72 h
Excerpt: In order to monitor the reversal of epigenetic silencing associated with H3K27me3, a cell based assay was established using the breast-cancer cell line MDA-MB-231 for which EZH2 expression levels as well as EZH2 target genes have been characterised (17). For initial characterisation of compound activity two genes (KRT17, FBXO32) were selected which are primarily silenced by H3K27me3 in combination with H3K9me2/3 but are not DNA methylated. Furthermore, the DNA methylated gene (RUNX3) was selected to control for effects at loci that are silenced by H3K27me3 in combination with CpG island DNA methylation. The two enzymes which perform H3K27 methylation (EZH2) and demethylation (JMJD3) were also included. Cell death can lead to the down-regulation of EZH2 and up-regulation of JMJD3 in cells (36) and is therefore important to control for indirect effects due to cell death in such a cell-based assay.
In order to identify compounds which can mediate the reactivation of PRC2 silenced genes, MDA-MB-231 cells were treated for 48 h at a concentration of 10 μM of Example compounds 3 (HKMTi-1-005), 4 (HKMTi-1-022) or 5 (HKMTi-1-011), as well as with the comparative examples BIX-01294 or UNC0224, and mRNA levels of KRT17, FBXO32, RUNX3, as well as EZH2 and JMJD3 were measured by real-time RT-PCR. […]

Row | SMILES | FBXO32 levels increase
1 | COc1cc2nc(N3CCN(c4ccccn4)CC3)nc(NC3CCN(Cc4ccccc4)CC3)c2cc1OC [HKMTi-1-011] | more than 20 fold
2 | COc1cc2nc(N3CCCCC3)nc(NC3CCN(Cc4ccccc4)CC3)c2cc1OC [HKMTi-1-022] | more than 20 fold
